Reference: PubChem BioAssay AID493014 (National Center for Advancing Translational Sciences (NCATS), 2011)
In all, about 340,000 compounds went through this assay and about 170 (0.05%) were called active. This list was built around the results that the source calls inconclusive (neither active nor inactive); the mix of calls is not that of the screen. Calls follow the shape of the dose curve; as a rule, active = well fitted inhibition curve with a large enough effect in the signal ratio, with a control signal flat (not every such curve was filed as active); inconclusive = small, poorly fitted or top-dose-only effect, or effect the other way, or a change in a side signal; inactive = flat fitted curve, though single readings scatter; the % refers to the signal ratio. Potencies beside an inconclusive call are fits to weak or partial responses and may not hold up.

Test: qHTS Assay to Find Inhibitors of Chronic Active B-Cell Receptor Signaling;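 as to activity change, negative = inhibition: plate controls were basal doxycycline-induced cells for no effect and cells given 10 µM MG132 for full effect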
Settings: ABC-DLBCL IkBa-CBG/CBR reporter, luminescence ratio (green luciferase fused to IkBa over red control in TMD8 lymphoma cells), 4 h; activity change, negative = inhibition: at 46.1 µM (top of the series)
How it was run: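 Compounds up to 46 uM were incubated four hours with TMD8 cells whose green CBG68 luciferase is fused to IkappaBalpha; red CBR luminescence normalised the signal, and concentration-effect curves were fitted to fusion, red and ratio data.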
Potency is read from the fitted curve at half-maximal effect.

SMILES | activity change, negative = inhibition | Potency
Clc1ccccc1N1CCN(c2ncnc3nc[nH]c23)CC1 | inconclusive: 8.42% | –
CCCc1[nH]n(-c2ccc([N+](=O)[O-])cc2)c(=O)c1C(C)=NCc1ccncc1 | inconclusive: 14% | –
Nc1cc(N)nc(SCCOc2ccccc2)n1 | inconclusive: 1.37% | –
O=C1CCCN1CCC(=O)N1CCCC(CO)(Cc2ccccc2)C1 (stereo not given) | inconclusive: 6.25% | –
CC(=O)Nc1cccc(-c2nc(-c3ccccc3)no2)c1 | – | inconclusive: 15.8 µM [falling, partial curve]
O=C(NNc1ccccc1Cl)C(O)(c1cccc(C(F)(F)F)c1)c1cccc(C(F)(F)F)c1 | inconclusive: -8.9% | –
Cc1ccc(O)c(C(=O)/C=C/c2ccc3c(c2)OCCCO3)c1 | – | inconclusive: 20.6 µM [falling, single point]
NC(=O)c1c(N)sc2c1CCCC2 | inactive | –
O=[N+]([O-])c1ccc(O)c(Nc2c([N+](=O)[O-])ccc3nonc23)c1 | inconclusive: 17% | –
Cc1c(C(=O)N2CCN(S(C)(=O)=O)CC2)oc2ccccc12 | inconclusive: -13.2% | –
Cc1cc(C)cc(NC(=S)Nc2ccc3cn[nH]c3c2)c1 | inconclusive: -57.6% | –
O=c1c2[nH]c3ccccc3c2ncn1C1CCCCC1 | inconclusive: -5.45% | –
O=C(c1ccco1)N1CCCN(Cc2nc(-c3cccs3)no2)CC1 | inconclusive: -7.08% | –
CCOc1ccc2c(c1)C(=NNC(=O)c1ccncc1)c1cc(OCC)ccc1-2 | inconclusive: 14.5% | –
CC(=O)Oc1ccc(/C=C2/Oc3ccccc3C2=O)cc1 | inactive | –
CCc1ccc(Nc2nnc(SCc3cc(=O)n4ccsc4n3)s2)cc1 | inconclusive: 14.3% | –
O=C(NCC(c1ccco1)N1CCN(c2ccccc2F)CC1)OCc1ccccc1 (stereo not given) | inconclusive: -16.1% | –
Oc1ccc(N=Nc2nccs2)c(O)c1 | – | inconclusive: 3.55 µM [rising, partial curve]
O=c1c(-c2ccccc2)c(-c2ccccc2)oc2cc(O)cc(O)c12 | – | inconclusive: 25.1 µM [falling, single point]
O=C(CSc1ncc(-c2ccccc2)[nH]1)Nc1ccccc1 | inconclusive: 25.7% | –
O=C(COC(=O)c1ccccc1Br)Nc1ccc(F)cc1 | inconclusive: -14.3% | –
CC(C)(C)c1ccc(C(=O)CCCSC2=C(C#N)C(c3ccco3)C3=C(CCCC3=O)N2)cc1 (stereo not given) | inactive | –

SMILES | activity change, negative = inhibition | Potency
COc1ccc(-c2cc(C(F)F)n3ncc(C(=O)n4ccnc4C)c3n2)cc1 | inactive | –
O=C(CSc1nc2ccccc2[nH]1)Nc1ccccc1F | – | inconclusive: 18.4 µM [falling, partial curve]
COc1ccc(C(=O)c2c(-c3ccc(OC)cc3)oc3ccccc23)cc1 | inconclusive: 12.1% | –
O=C(N/N=C/c1ccc([N+](=O)[O-])cc1)c1cc(C2CC2)[nH]n1 | – | inconclusive: 10 µM [falling, partial curve, poor fit]
CC1SCC(=NOCc2ccccc2)CS1 (stereo not given) | inconclusive: 13.1% | –
CC1CCN(S(=O)(=O)c2ccc(C(=O)Nc3nnc(-c4ccco4)o3)cc2)CC1 | inactive | –
Cc1cc(C)c(C(=O)COC(=O)CCn2c(C)csc2=O)cc1C | inconclusive: 2.57% | –
CC(=O)Nc1ccc(NC(=O)COC(=O)c2ccccc2C(=O)c2ccccc2)cc1 | – | inconclusive: 14.6 µM [falling, partial curve, poor fit]
COc1cccc(Nc2ncccc2C(=O)O)c1 | inconclusive: 28.5% | –
CCOC(=O)CNC(=O)CSc1nc(-c2ccccc2)ns1 | inconclusive: -1.45% | –
COc1ccc(CC(=O)Nc2cccc(SC)c2)cc1 | inactive | –
COc1cccc(-c2c(C#N)c(N)nc3c2c(C)nn3-c2ccccc2)c1O | inconclusive: -1.1% | –
CC1CC=C(c2ccccc2)C(=S)N1 (stereo not given) | – | inconclusive: 35.5 µM [falling, single point]
COc1cc(CNn2c(C)n[nH]c2=S)cc(Br)c1OCC(=O)NC(C)(C)C | inconclusive: -12% | –
COc1ccc(C)cc1NC(=O)CN1CCN(S(=O)(=O)c2ccc3ccccc3c2)CC1 | inconclusive: -1.26% | –
Cc1ccc(/C=N/n2cnnc2)s1 | inconclusive: 4.77% | –
O=C(NCC1CCC(C(=O)O)CC1)OCc1ccccc1 (stereo not given) | – | inconclusive: 17.8 µM [falling, partial curve, poor fit]
CCCN(CC(=O)Nc1ccccc1OC)C(=O)CSC(=S)N1CCCC1 | inactive | –
Cc1ccc(/C=C/C(=O)Nc2ccncc2)o1 | inconclusive: -1.74% | –
O=C(NCc1ccccc1CN1CCCC1)c1ccc(Cl)c(S(=O)(=O)N2CCCC2)c1 | inactive | –
Cc1cn2c(nc(=O)c3cccnc32)s1 | inactive | –

Taken from above:
activity change, negative = inhibition with CCOC(=O)CNC(=O)CSc1nc(-c2ccccc2)ns1 reads inconclusive: -1.45%
activity change, negative = inhibition with CCCN(CC(=O)Nc1ccccc1OC)C(=O)CSC(=S)N1CCCC1 reads inactive
activity change, negative = inhibition with COc1cccc(-c2c(C#N)c(N)nc3c2c(C)nn3-c2ccccc2)c1O reads inconclusive: -1.1%
activity change, negative = inhibition with Cc1ccc(/C=N/n2cnnc2)s1 reads inconclusive: 4.77%
activity change, negative = inhibition with O=C(NCc1ccccc1CN1CCCC1)c1ccc(Cl)c(S(=O)(=O)N2CCCC2)c1 reads inactive

Next structures

SMILES | activity change, negative = inhibition | Potency
Nc1nc(-c2ccc(Br)cc2)cc(C(F)(F)F)n1 | inconclusive: -2.47% | –
CCCCN(CC)C(=O)CSc1nc2n[nH]c(C)c2c(=N)n1-c1ccc(CC)cc1 | – | inconclusive: 1.78 µM [rising, full curve, poor fit]
COC(=O)CSc1nc(-c2ccccc2)c2c(c1C#N)CCCC2 | inconclusive: 27.5% | –
CCc1ccc(Nc2ccc(C(N)=O)cc2[N+](=O)[O-])cc1 | inconclusive: -7.5% | –
OC(CNC1CCCCCC1)COc1cccc2ccccc12 (stereo not given) | inconclusive: -8.15% | –
CCc1cccc(CC)c1NC(=O)CCCSc1nc2ccccc2s1 | – | inconclusive: 10.3 µM [rising, partial curve]
CN(C)CC(CCC(CN(C)C)C(=O)c1ccccc1)C(=O)c1ccccc1 (stereo not given) | inconclusive: 20.5% | –
Cc1cccc(CSc2nnc(CCNC(=O)OC(C)(C)C)o2)c1 | inactive | –
Cc1nn(-c2ccccc2)c2[nH]c(=O)cc(C(F)(F)F)c12 | inconclusive: -6.63% | –
Cc1ccc2cc(CN(Cc3ccc4c(c3)OCO4)Cc3nnnn3Cc3ccco3)c(=O)[nH]c2c1 | inconclusive: -14.7% | –
Nc1nonc1-c1noc(CCCOc2ccc(Cl)cc2Cl)n1 | inconclusive: 1.93% | –
O=C(COc1ccc2ccccc2c1)Nc1nc2ccccc2[nH]1 | inconclusive: 18.4% | –
c1ccc(Cn2c(-c3cncs3)nc3ccccc32)cc1 | inconclusive: 8.9% | –
CC(=O)c1cccc(NC(=O)CCCSc2ccccc2)c1 | – | inconclusive: 7.94 µM [rising, partial curve, poor fit]
O=[N+]([O-])c1nn(-c2ccccc2)n(O)c1=NC1CCN(Cc2ccccc2)CC1 | inactive | –
CN(CC(=O)Nc1ccc(F)cc1)C(=O)CSc1nnc(Cc2ccccc2)o1 | inactive | –
Cc1ccc(C)c2[nH]c(=O)c(CCNC(=O)c3ccc(S(=O)(=O)N4CCCC4)cc3)cc12 | inactive | –
O=C(N/N=C/c1ccc(Cl)cc1Cl)Nc1ccccc1 | inconclusive: 12.2% | –
Cc1cc(C)c2nc(SCC(=O)N3CC(=O)Nc4ccccc43)c(C#N)cc2c1 | – | inconclusive: 1.46 µM [falling, full curve, poor fit]
COc1cccc(CNCc2ccc(OC)cc2OC)c1 | inactive | –
CCOC(=O)c1cc2c(nc1N)CC(C)(CC)OC2 (stereo not given) | inconclusive: 13.6% | –
N#Cc1c(N)sc(=S)c2c1CCCC2 | inactive | –

SMILES | activity change, negative = inhibition | Potency
CC(C)N1CC=C2C(C#N)=C(N)C(C#N)(C#N)[C@H](c3ccoc3)[C@H]2C1 | inactive | –
CN(Cc1cn(-c2ccccc2)nc1-c1ccc(Cl)cc1)C(=O)CCC(=O)O | inconclusive: -2.46% | –
C/C(=N\NC(N)=S)C12CC3CC(CC(C3)C1)C2 | inactive | –
CSC(=S)NCc1cccnc1 | – | inconclusive: 15.8 µM [falling, single point]
c1ccc(-c2nnc3sc(Cc4cccs4)nn23)cc1 | inconclusive: 0.784% | –
COc1ccc(N2CCN(C(=O)CCCOc3cc(=O)n(C)c4ccccc34)CC2)cc1 | inconclusive: -15.2% | –
Cc1cc(N/N=C/c2ccc(O)cc2O)nc(N2CCOCC2)n1 | – | inconclusive: 15.8 µM [falling, partial curve]
Clc1cc(Cl)c2nc(N3CCCCC3)sc2c1 | inconclusive: 5.27% | –
COCc1cc(=O)n2[nH]c(-c3ccccc3)cc2n1 | – | inconclusive: 35.5 µM [rising, single point]
Cc1cc(C)c2c(N)c(C(=O)N3CCc4ccccc4C3)sc2n1 | – | inconclusive: 14.1 µM [falling, partial curve, poor fit]
CCC(C(=O)NCCC(C)C)N(Cc1ccccc1Cl)C(=O)c1snc(C(N)=O)c1N (stereo not given) | inconclusive: -9.4% | –
COc1ccc(NC(=O)CN(C)C(=O)CC2CCCCC2)cc1 | inconclusive: 9.2% | –
Cc1cc(OCC(O)CNC(C)c2ccccc2)ccc1C(C)C (stereo not given) | inconclusive: -29% | –
O=C(Nc1cc([N+](=O)[O-])ccc1O)c1cccc(C(=O)Nc2cc([N+](=O)[O-])ccc2O)c1 | – | inconclusive: 22.4 µM [falling, single point]
O=C(N/N=C/c1cn(-c2ccccc2)nc1-c1cccnc1)c1cccnc1 | – | inconclusive: 2.82 µM [falling, single point]
O=C(CSc1nccc(=O)[nH]1)c1c[nH]c2ccccc12 | inconclusive: 299% | –
C=CCc1cccc(/C=N/n2cnnc2)c1O | inactive | –
CCCCC(c1nnnn1CCOC)N1CCN(CC)CC1 (stereo not given) | inactive | –
CCCN=C1N(CC)C[C@@H]2[C@@H]3C(=O)N(C)C(=O)[C@@H]3[C@](C)(C(=O)OC)N12 | inconclusive: 0.709% | –
